This is one part of the list. These are further read-outs of the screen, such as a control signal, another cell line or another target. No call is given for them. Compounds called inactive in the main read-out are mostly missing here. Words in brackets tell the shape of the fitted curve; partial curves, single points and poor fits give uncertain potencies.
Experiment: IkB Signaling
Conditions: ABC-DLBCL IkBa-CBG/CBR dual luciferase ratio (green luciferase fused to IkBa over red control in OCI-Ly3 lymphoma cells), 4 h; measured here: control luc red channel unless noted
How it was run: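 In this assay, an IκBα–CBG68 fusion accumulates when IKK-driven degradation is blocked; native CBR normalizes for cell number. OCI-Ly3 cells were treated 4 h with compound and doxycycline, then green and red light read after Chroma-Glo addition.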

| SMILES | AC50 |
| --- | --- |
| Cc1ccc(Nc2ccc3cc(S(=O)(=O)N4CCCCC4)ccc3n2)cc1F | 39.8 µM [falling, single point] |
| Cc1nn(-c2ccccc2)c2sc(C(=O)N(Cc3ccco3)C(C)C(=O)NC(C)(C)C)cc12 (configuration not stated) | 20 µM [falling, partial curve] |
| CCn1cc2nc(SCC(=O)Nc3ccc(OC)c(Cl)c3)n(Cc3ccc(OC)cc3)c(=O)c2n1 | 25.1 µM [falling, partial curve] |
| COc1ccc(-c2cc3nc(C)c(CCC(=O)NCc4ccccc4Cl)c(C)n3n2)c(OC)c1 | 0.501 µM [falling, full curve] |
| CC(=O)c1ccc(NC(=O)c2cn(-c3ccccc3)nc2-c2ccc(Br)cc2)cc1 | 15.8 µM [falling, partial curve] |
| O=C(CCC1CCCC1)N1CCc2c([nH]c3ccccc23)C1c1ccc(F)cc1 (configuration not stated) | 12.6 µM [falling, partial curve] |
| CCOc1ccc(NC(=O)NCCN2CCN(c3cccc(C)c3C)CC2)cc1 | 0.1 µM [falling, partial curve] |
| CCc1cccc(C)c1NC(=O)C1CCN(S(=O)(=O)c2c(C)noc2/C=C/c2c(C)cc(C)cc2C)CC1 | 0.316 µM [falling, full curve] |
| N#Cc1nc(COc2ccccc2Cl)oc1NCCc1ccccc1 | 39.8 µM [falling, single point] |
| Cc1ccc(C)c(-n2c(N)c(C#N)c3nc4ccccc4nc32)c1 | 12.6 µM [falling, partial curve] |
| COc1cccc(CNc2cc(C)nc3nc(-c4ccc(C)cc4)nn23)c1 | 15.8 µM [falling, partial curve] |
| COc1ccc(C2c3c(n(C)c4ccccc34)C(=O)N2CC(=O)Nc2cccc(F)c2)cc1 (configuration not stated) | 15.8 µM [falling, partial curve] |
| Cc1ccc(N2CC(C)Cn3c2nc2c3c(=O)n(Cc3cccc(Cl)c3)c(=O)n2C)cc1 (configuration not stated) | 39.8 µM [falling, single point] |
| COc1ccc(NC(=O)c2oc3ccc(S(=O)(=O)N4CCOCC4)cc3c2C)cc1 | 12.6 µM [falling, single point] |
| CCCc1cc(=O)[nH]c2nnc(SCC)n12 | 31.6 µM [falling, single point] |
| COc1cc(C2Nc3c(C)cc(C)cc3-c3cc(C)nn32)cc(OC)c1O (configuration not stated) | 25.1 µM [falling, single point] |
| CCCS(=O)(=O)NCCc1sc2nc(-c3ccc(F)cc3)nn2c1C | 25.1 µM [falling, partial curve, poor fit] |

In another format: entries from further up
Cc1ccc(Nc2ccc3cc(S(=O)(=O)N4CCCCC4)ccc3n2)cc1F
  AC50: 39.8 µM [falling, single point]
Cc1ccc(C)c(-n2c(N)c(C#N)c3nc4ccccc4nc32)c1
  AC50: 12.6 µM [falling, partial curve]

— PubChem BioAssay AID445 (National Center for Advancing Translational Sciences (NCATS), 2006)
